Measurements: PubChem BioAssay AID540276 (National Center for Advancing Translational Sciences (NCATS), 2011)
“And” between values parts separate entries of the source, which are not always exact repeats. Equal values may be shown once. The campaign covered roughly 300,000 compounds. About 5,400 (1.8%) were called active. Inconclusive results, whose numbers are uncertain, are shown with a selection of clear calls. Calls follow the shape of the full dose curve; tested in HEK293 cells. Potencies of inconclusive entries are doubtful fits and often do not repeat.

Test: qHTS for inhibitors of binding or entry into cells for Marburg Virus
Details: Marburg virus pseudotyped entry inhibition, cell reporter; series mostly up to 37.8 µM
Potency is read from the fitted curve at half-maximal effect.

Row | Compound | Potency
1 | COc1ccccc1CN(C)C(C)C(=O)Nc1cccc(C(C)=O)c1 (stereo not given) | inconclusive: 35.5 µM [inhibitor, single point]
2 | Cc1cc(C(=O)COC(=O)c2ccc(Cl)c(S(N)(=O)=O)c2)c(C)n1CC1CCCO1 (stereo not given) | inconclusive: 1.41 µM [activator, partial curve, poor fit]
3 | Clc1ccccc1Cc1noc(CN2CCCCC2CCc2ccccn2)n1 (stereo not given) | inconclusive: 6.31 µM [inhibitor, single point]
4 | O=C(CSc1ccc(-c2ccccn2)nn1)N1CCCCC1 | inactive
5 | O=C(CNC(=O)c1ccccc1Br)N/N=C/c1ccccc1O | inconclusive: 7.08 µM [inhibitor, partial curve, poor fit]
6 | CC(C)c1ccc(C(C(=O)NC2CCCCC2)N(C(=O)c2ccccn2)c2cccnc2)cc1 (stereo not given) | inconclusive: 12.6 µM [inhibitor, single point]
7 | O=C(NCCc1c[nH]c2ccccc12)c1c(Cl)nc2sccn12 | inactive
8 | Cc1c(-n2c(SCC(=O)O)nnc2-c2ccccc2Cl)c(=O)n(-c2ccccc2)n1C | inconclusive: 35.5 µM [inhibitor, single point]
9 | O=C(Nc1ccccc1N1CCOCC1)c1ccccc1NS(=O)(=O)c1ccc(F)c(F)c1 | inconclusive: 8.91 µM [inhibitor, partial curve, poor fit]
10 | O=C1CC(c2ccccc2)Cc2[nH]c(=O)c(C(=O)Nc3ccc(OC(F)(F)F)cc3)cc21 (stereo not given) | inactive
11 | CC1=CC(C)=Nc2ccccc2N1 | inactive
12 | Cc1nn(-c2ncc(C(F)(F)F)cc2Cl)c(=O)n1-c1cccc(F)c1 | inactive
13 | Cc1cccc(N2CCN(C(=O)C3CCCN(S(=O)(=O)c4cccc5nsnc45)C3)CC2)c1C (stereo not given) | inactive
14 | NC(=O)c1cccc(NC(=O)Nc2ccc(Cl)cc2)c1 | inactive
15 | CCOCCCNC(=O)C(c1ccccc1)N(Cc1cccs1)C(=O)c1ccc(NC(C)=O)cc1 (stereo not given) | inconclusive: 11.2 µM [inhibitor, partial curve, poor fit]
16 | Cc1ccc(C(C(=O)NC2CCCC2)N(Cc2ccc(F)cc2)C(=O)c2csnn2)o1 (stereo not given) | inconclusive: 16.4 µM [inhibitor, partial curve, poor fit]
17 | COc1cccc(N2C(=O)C(CC(=O)Nc3ccc(Cl)cc3)N(Cc3ccc4c(c3)OCO4)C2=O)c1 (stereo not given) | inconclusive: 35.5 µM [inhibitor, single point]
18 | CCOC(=O)c1nc2ccccc2c(=O)[nH]1 | inactive
19 | Cc1cc(Cl)ccc1OCC(=O)Nc1cccnc1 | inconclusive: 5.62 µM [activator, single point]
20 | CC1(C)CC(=O)C2=C(C1)OC1=C(C(=O)CC(C)(C)C1)C2c1ccc(O)cc1O | inactive and inconclusive: 29.1 µM [inhibitor, single point]
21 | CCN(CC)c1ccc(/C=N/Nc2nc(C)cc(C)n2)cc1 | active: 10 µM
22 | O=C(c1cc(-c2ccc(Cl)cc2)on1)N1CCCC1 | inconclusive: 0.891 µM [activator, partial curve, poor fit]
23 | Cc1ccc(C(=O)NCc2nnc(SCC(=O)Nc3ccccc3)n2C)cc1 | inactive

Row | Compound | Potency
24 | O=C(Nc1ccc(N2CCOCC2)cc1)Nc1cnsn1 | inconclusive: 35.5 µM [activator, single point]
25 | O=c1c2c(-c3ccccc3)csc2nc2c3ccccc3c(NCCN3CCOCC3)nn12 | inconclusive: 3.55 µM [inhibitor, single point]
26 | Cc1cc(C)c(S(=O)(=O)c2cccc(Cl)c2)c(Cl)n1 | inactive
27 | O=C(Nc1nnc(-c2ccc(Cl)cc2)o1)C1=COCCO1 | inconclusive: 15.8 µM [activator, single point]
28 | CCOc1ccc(C(=O)NCC(=O)NCC(c2ccccc2OC)N2CCCC2)cc1 (stereo not given) | inactive
29 | CCOC(=O)c1c2c(n(C3CCCCC3)c1CN(C)C)CC(Br)=C(OC)C2 | active: 10 µM
30 | CN(C(=O)c1cccc(S(=O)(=O)NCc2ccccc2)c1)C1CCCCC1 | inactive
31 | Clc1ccc(COn2nnc3ccccc32)c(Cl)c1 | inconclusive: 1.41 µM [activator, partial curve, poor fit]
32 | Nc1[nH]c(=S)nc2nc(-c3ccccc3)c(-c3ccccc3)nc12 | inconclusive: 7.08 µM [inhibitor, partial curve, poor fit]
33 | CSc1nc(NCCN(C)C)c2sc3nc(-c4ccco4)c4c(c3c2n1)CCC4 | inconclusive: 35.5 µM [inhibitor, single point]
34 | O=C(COC(=O)c1cccs1)NCc1ccco1 | inconclusive: 35.5 µM [activator, single point]
35 | O=C(CCC1CCCCC1)Nc1c2c(nn1-c1ccc(F)cc1)CS(=O)(=O)C2 | inconclusive: 5.17 µM [inhibitor, partial curve, poor fit]
36 | CC1(C)CNc2cc([N+](=O)[O-])ccc2S1 | inactive
37 | COc1ccc(Cl)c2c1[nH]c1nc(SCc3cccnc3)nnc12 | inactive
38 | CC(C)Cn1nc(C(=O)NCc2ccccc2CN2CCCC2)c2ccccc2c1=O | inactive
39 | CCOc1ccccc1NS(=O)(=O)c1cccs1 | inactive
40 | Cc1cccc(Nc2nccc(N(C)C)c2C#N)c1 | inactive
41 | O=S(=O)(c1ccc(Br)cc1)N1CCN(c2cc(-c3ccccc3)nc3ncnn23)CC1 | inactive and inconclusive: 25.9 µM [inhibitor, single point]
42 | COc1cccc([C@H](O)Cn2cc(-c3ccc(CON=C(C)C)cc3)nn2)c1 | inconclusive: 0.168 µM [activator, partial curve]
43 | CC(C)(C)n1cnc2cc(NC(=O)c3ccc(Cl)cc3)ccc21 | inconclusive: 35.5 µM [inhibitor, single point]
44 | CC(=O)Oc1ccc(NC(=O)CSc2ccccc2)cc1 | inconclusive: 23.1 µM [activator, single point]
45 | CN(C)C1C(=O)C(C(N)=O)=C(O)[C@@]2(O)C(=O)C3=C(O)c4c(O)cccc4[C@@](C)(O)C3[C@H](O)C12 (stereo not given in full) | inconclusive: 12.5 µM [activator, partial curve, poor fit]

3 of the compounds above, as tab-separated lines:
Row	Compound	Potency
5	O=C(CNC(=O)c1ccccc1Br)N/N=C/c1ccccc1O	inconclusive: 7.08 µM [inhibitor, partial curve, poor fit]
8	Cc1c(-n2c(SCC(=O)O)nnc2-c2ccccc2Cl)c(=O)n(-c2ccccc2)n1C	inconclusive: 35.5 µM [inhibitor, single point]
9	O=C(Nc1ccccc1N1CCOCC1)c1ccccc1NS(=O)(=O)c1ccc(F)c(F)c1	inconclusive: 8.91 µM [inhibitor, partial curve, poor fit]
